## Screening data, single-dose tests

Amino acid sequences for entries named in this document (tags omitted). Residues count along the entry.
UniProt P9WNZ1, whole entry: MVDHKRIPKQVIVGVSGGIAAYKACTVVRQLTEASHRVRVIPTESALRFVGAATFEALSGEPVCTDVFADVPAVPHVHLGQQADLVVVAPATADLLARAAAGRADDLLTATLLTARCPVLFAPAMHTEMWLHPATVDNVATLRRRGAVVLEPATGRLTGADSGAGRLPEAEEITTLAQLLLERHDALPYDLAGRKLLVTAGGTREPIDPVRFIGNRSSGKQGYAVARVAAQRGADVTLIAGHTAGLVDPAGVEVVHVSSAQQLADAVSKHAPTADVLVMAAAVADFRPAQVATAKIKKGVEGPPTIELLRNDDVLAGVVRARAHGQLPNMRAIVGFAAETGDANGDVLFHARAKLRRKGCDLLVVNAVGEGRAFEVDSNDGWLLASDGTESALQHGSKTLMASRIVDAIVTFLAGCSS
UniProt I6X8D2, whole entry: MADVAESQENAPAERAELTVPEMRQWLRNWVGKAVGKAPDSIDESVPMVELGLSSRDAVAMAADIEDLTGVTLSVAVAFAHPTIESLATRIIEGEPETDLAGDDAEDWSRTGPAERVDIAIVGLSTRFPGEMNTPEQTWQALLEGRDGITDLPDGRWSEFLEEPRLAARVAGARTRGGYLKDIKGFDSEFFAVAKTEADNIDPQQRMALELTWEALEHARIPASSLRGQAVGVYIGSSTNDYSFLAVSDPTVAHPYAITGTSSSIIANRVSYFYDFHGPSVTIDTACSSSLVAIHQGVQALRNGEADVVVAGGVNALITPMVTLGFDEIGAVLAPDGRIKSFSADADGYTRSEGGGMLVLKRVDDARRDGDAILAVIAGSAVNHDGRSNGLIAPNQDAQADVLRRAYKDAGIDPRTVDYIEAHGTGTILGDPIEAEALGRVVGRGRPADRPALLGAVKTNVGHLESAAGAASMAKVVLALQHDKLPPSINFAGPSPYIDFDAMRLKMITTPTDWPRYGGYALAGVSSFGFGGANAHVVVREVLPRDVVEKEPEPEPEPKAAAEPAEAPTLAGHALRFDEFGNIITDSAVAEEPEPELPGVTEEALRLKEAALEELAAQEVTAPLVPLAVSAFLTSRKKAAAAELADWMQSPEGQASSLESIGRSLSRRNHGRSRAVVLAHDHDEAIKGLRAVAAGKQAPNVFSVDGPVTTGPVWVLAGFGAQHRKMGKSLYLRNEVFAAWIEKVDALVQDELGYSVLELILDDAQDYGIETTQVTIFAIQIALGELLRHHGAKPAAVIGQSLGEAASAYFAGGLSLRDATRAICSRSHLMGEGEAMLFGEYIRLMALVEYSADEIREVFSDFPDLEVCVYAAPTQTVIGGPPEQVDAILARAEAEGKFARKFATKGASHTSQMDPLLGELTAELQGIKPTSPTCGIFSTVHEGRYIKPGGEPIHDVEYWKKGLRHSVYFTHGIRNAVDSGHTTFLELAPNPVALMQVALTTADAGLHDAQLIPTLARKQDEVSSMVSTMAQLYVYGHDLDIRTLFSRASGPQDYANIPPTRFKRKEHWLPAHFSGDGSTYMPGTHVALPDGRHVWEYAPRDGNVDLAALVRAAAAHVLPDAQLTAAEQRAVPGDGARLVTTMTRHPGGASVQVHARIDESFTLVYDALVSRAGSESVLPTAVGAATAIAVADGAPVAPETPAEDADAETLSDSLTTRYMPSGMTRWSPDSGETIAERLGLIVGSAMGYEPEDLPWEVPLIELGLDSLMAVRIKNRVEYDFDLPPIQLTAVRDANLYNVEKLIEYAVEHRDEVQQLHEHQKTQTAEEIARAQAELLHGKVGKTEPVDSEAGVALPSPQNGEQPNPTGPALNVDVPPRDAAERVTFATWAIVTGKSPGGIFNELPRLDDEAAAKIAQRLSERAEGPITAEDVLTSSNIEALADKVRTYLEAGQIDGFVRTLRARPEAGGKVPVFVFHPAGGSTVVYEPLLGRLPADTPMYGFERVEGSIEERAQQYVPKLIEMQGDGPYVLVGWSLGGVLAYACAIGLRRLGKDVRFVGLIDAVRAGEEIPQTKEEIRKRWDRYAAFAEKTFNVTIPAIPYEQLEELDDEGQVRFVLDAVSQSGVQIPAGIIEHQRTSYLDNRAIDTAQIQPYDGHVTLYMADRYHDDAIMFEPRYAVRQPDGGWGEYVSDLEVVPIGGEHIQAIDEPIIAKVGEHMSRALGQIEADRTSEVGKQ
UniProt P9WPC5, whole entry: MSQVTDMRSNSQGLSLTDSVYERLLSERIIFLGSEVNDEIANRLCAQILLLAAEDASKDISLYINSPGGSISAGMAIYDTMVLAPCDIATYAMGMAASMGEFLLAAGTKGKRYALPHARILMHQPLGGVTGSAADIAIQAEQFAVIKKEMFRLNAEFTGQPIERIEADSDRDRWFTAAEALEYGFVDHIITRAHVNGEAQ
UniProt P9WPC3, whole entry partner: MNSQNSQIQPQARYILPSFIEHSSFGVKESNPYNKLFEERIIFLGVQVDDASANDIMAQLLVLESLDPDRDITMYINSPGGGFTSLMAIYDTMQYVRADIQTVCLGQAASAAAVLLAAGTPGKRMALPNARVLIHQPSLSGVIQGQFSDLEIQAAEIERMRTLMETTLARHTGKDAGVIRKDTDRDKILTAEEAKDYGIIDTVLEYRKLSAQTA
UniProt A4I591, 1-473: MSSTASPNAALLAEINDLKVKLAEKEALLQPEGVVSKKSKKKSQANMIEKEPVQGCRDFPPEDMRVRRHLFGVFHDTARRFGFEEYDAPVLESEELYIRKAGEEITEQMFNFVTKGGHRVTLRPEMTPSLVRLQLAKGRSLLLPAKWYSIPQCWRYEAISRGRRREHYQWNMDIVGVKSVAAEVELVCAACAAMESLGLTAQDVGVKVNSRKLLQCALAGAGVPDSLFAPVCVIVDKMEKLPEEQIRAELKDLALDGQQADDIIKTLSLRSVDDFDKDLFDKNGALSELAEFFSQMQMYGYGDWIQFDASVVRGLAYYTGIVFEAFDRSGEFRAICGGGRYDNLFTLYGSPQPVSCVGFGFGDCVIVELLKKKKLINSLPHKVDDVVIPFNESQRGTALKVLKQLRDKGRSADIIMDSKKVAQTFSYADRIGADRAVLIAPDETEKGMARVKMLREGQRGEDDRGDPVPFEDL
UniProt P9WFT3, whole entry: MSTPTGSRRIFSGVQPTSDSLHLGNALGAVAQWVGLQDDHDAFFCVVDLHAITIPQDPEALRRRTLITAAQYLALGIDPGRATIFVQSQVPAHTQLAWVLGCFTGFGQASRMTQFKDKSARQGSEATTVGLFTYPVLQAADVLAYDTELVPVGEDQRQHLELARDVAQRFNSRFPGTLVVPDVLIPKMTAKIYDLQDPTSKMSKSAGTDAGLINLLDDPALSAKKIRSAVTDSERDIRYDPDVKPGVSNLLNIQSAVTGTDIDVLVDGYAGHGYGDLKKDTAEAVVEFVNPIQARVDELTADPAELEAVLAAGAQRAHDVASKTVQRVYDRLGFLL

The values are deposited in ChEMBL (CHEMBL3988442, “University of Dundee, Small-Polar-MMV Screening Library” (2021)).

Values are the deposited “Percent Effect”, in %. How 0% and 100% were set is not recorded. Most values in the screen are low, and negative values occur. The compounds are a random part of those screened.

CoaBC: 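Coenzyme A biosynthesis protein CoaBC, Mycobacterium tuberculosis (UniProt P9WNZ1). Enzyme assay of CoaBC with a phosphate dye (Biomol Green) read at 650 nm. Compounds at 30 µM. Direction is inferred from only a few compounds that gave an IC50; most scored high, so higher reads as stronger inhibition. Most strong results did not repeat in a second test. About 67,000 compounds were tested under these conditions; 0.06% (about 40) showed 50% or more at least once.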
Pks13 thioesterase: 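Enzyme assay of the thioesterase domain of polyketide synthase 13; the read-out is not stated. Target: Polyketide synthase Pks13, Mycobacterium tuberculosis (UniProt I6X8D2). Compounds at 30 µM. The record gives no direction; the compounds picked for IC50 retests had high values, so higher reads as stronger inhibition. Size under these conditions: about 67,000 compounds, about 300 of them at 50% or above in at least one test.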
ClpP1P2: 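ClpP1P2, Mycobacterium tuberculosis (UniProt P9WPC5 and UniProt P9WPC3). Protease assay of ClpP1P2, read by the AMC dye that it sets free. Concentration: 50 µM. Higher reads as stronger inhibition, judged from the few compounds that gave an IC50. Most other retested compounds had strongly negative values. Size under these conditions: about 69,000 compounds, about 10 of them at 50% or above in at least one test.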
LiHisRS: 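Histidine-tRNA ligase, Leishmania infantum (UniProt A4I591). Enzyme assay of histidyl-tRNA synthetase; the read-out is not stated. Concentration: 30 µM. Higher reads as stronger inhibition (inferred: compounds with an IC50 in retests scored well above the rest). The assay is labelled LdHisRS but filed under L. infantum. Of about 69,000 compounds tested this way, about 410 (0.6%) reached 50% or more in at least one test.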
MtTrpRS: 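Tryptophan-tRNA ligase, Mycobacterium tuberculosis (UniProt P9WFT3). Enzyme assay of tryptophanyl-tRNA synthetase; the read-out is not stated. Tested at 10 µM. Higher most likely means stronger inhibition; the record gives no direction and few retests gave an IC50. About 65,000 compounds were tested under these conditions; 0.098% (about 64) showed 50% or more at least once.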

{"structure": "CCn1ccnc1CN1CCCN(C(=O)COC2CCCC2)CC1", "CoaBC": 6.997, "Pks13 thioesterase": -24.49, "ClpP1P2": 20.74, "LiHisRS": 13.04, "MtTrpRS": 7.284}
{"structure": "CC(C)c1noc(C[S+]([O-])CC(=O)Nc2cc(F)ccc2F)n1", "stereo": "stereo not given", "CoaBC": 1.08, "Pks13 thioesterase": -17.48, "ClpP1P2": -3.785, "LiHisRS": 14.29, "MtTrpRS": -4.534}
{"structure": "Cn1cnc2c1CCN(CC(O)c1ccc(S(C)(=O)=O)cc1)C2", "stereo": "stereo not given", "CoaBC": 8.249, "Pks13 thioesterase": -26.52, "ClpP1P2": -4.55, "LiHisRS": 10.26, "MtTrpRS": -4.935}
{"structure": "CC(C)N(C)S(=O)(=O)N(Cc1cccs1)CC1CCCO1", "stereo": "stereo not given", "CoaBC": 0.3659, "Pks13 thioesterase": -5.605, "ClpP1P2": 7.729, "LiHisRS": -24.18, "MtTrpRS": -1.722}
{"structure": "COC(=O)[C@@H]1Cc2ncn(C)c2CN1S(=O)(=O)c1cccs1", "CoaBC": 6.876, "Pks13 thioesterase": 6.346, "ClpP1P2": 2.948, "LiHisRS": 10.81, "MtTrpRS": -1.754}
{"structure": "Cc1ccc(C(=O)N2CCN(c3ccnc4ccsc34)CC2)o1", "CoaBC": 6.601, "Pks13 thioesterase": -2.842, "ClpP1P2": -3.764, "LiHisRS": 22.58, "MtTrpRS": -1.175}
{"structure": "Cc1nnc(CN(C)CC2CCCCC2)o1", "CoaBC": 3.641, "Pks13 thioesterase": -0.1006, "ClpP1P2": -15.47, "LiHisRS": 0, "MtTrpRS": -2.592}
{"structure": "CC(=O)N1CCC(CCc2ccnc(NC(=O)c3ccccn3)c2)CC1", "CoaBC": -0.5256, "Pks13 thioesterase": -16.33, "ClpP1P2": 36.77, "LiHisRS": 11.59, "MtTrpRS": -3.732}
{"structure": "O=C(c1ccc[nH]1)N1C[C@H](OCc2cccnc2)[C@H]2COC[C@H]21", "CoaBC": -7.66, "Pks13 thioesterase": -19.21, "ClpP1P2": 1.018, "LiHisRS": 19.23, "MtTrpRS": -8.068}
{"structure": "O=C(c1cn(-c2cccc(Cl)c2F)nn1)N1CCCSCC1", "CoaBC": 1.527, "Pks13 thioesterase": -13.62, "ClpP1P2": -11.33, "LiHisRS": 10.26, "MtTrpRS": -0.8497}
{"structure": "Cc1ccnc(NC(=O)c2cccc(OCc3nnnn3C)c2)c1", "CoaBC": 3.883, "Pks13 thioesterase": -11.23, "ClpP1P2": 8.766, "LiHisRS": 16.67, "MtTrpRS": -6.192}
{"structure": "CNC(=O)COC1COC2(CCN(Cc3cccnc3OC)CC2)C1", "stereo": "stereo not given", "CoaBC": 0.7317, "Pks13 thioesterase": 12.57, "ClpP1P2": 2.559, "LiHisRS": 22.64}
{"structure": "Cc1nc2sccn2c1CNC1(c2ccccc2F)CCCC1", "CoaBC": 4.192, "Pks13 thioesterase": -3.782, "ClpP1P2": -17.66, "LiHisRS": 9.859, "MtTrpRS": -2.243}
{"structure": "O=C(c1ccc[nH]1)N1CCc2ccc(S(=O)(=O)N3CCOCC3)cc2C1", "CoaBC": -4.463, "Pks13 thioesterase": 9.468, "ClpP1P2": 17.57, "LiHisRS": 12.24, "MtTrpRS": 1.615}
{"structure": "CN1N=C(C(=O)N(Cc2ccco2)C2CC2)CCC1=O", "CoaBC": -6.883, "Pks13 thioesterase": -14.91, "ClpP1P2": -2.064, "LiHisRS": 5.714, "MtTrpRS": -6.674}
{"structure": "CSc1ncn(-c2nc(NC3CC3)nc(N(C)C)n2)n1", "CoaBC": -18.23, "Pks13 thioesterase": -13.97, "ClpP1P2": -0.1844, "LiHisRS": 14.61, "MtTrpRS": 1.699}
{"structure": "N#Cc1ccc(Nc2nc3c(s2)C(=O)CN(CC2CC2)C3)cc1", "CoaBC": 3.253, "Pks13 thioesterase": 1.936, "ClpP1P2": 16.16, "LiHisRS": 22.86}
{"structure": "Cc1nc(N2CCC(O)(c3ccccc3)CC2)c2c(C)nn(C)c2n1", "CoaBC": -2.751, "Pks13 thioesterase": 7.897, "ClpP1P2": 5.291, "LiHisRS": 9.836, "MtTrpRS": -3.905}
{"structure": "O=C1O[C@@H]2CN(Cc3cc4ccccc4s3)C[C@@H]2N1Cc1ccccn1", "CoaBC": 3.719, "Pks13 thioesterase": -35.95, "ClpP1P2": -2.563, "LiHisRS": 2.667, "MtTrpRS": 0.2901}
{"structure": "COc1ccccc1C(=O)N1CC(=O)N(C2CCCCC2)CC(O)C1", "stereo": "stereo not given", "CoaBC": -4.843, "Pks13 thioesterase": -19.41, "ClpP1P2": 5.128, "LiHisRS": 0}
{"structure": "CCOc1cccc2c1OCC(=O)N(c1ccc(N(C)C)cc1)C2", "CoaBC": 0.9685, "Pks13 thioesterase": -4.18, "ClpP1P2": 4.634, "LiHisRS": 13.04, "MtTrpRS": -4.617}
{"structure": "Cc1cnn(C2CCCN(C(=O)c3cccc(-n4cnnn4)c3)C2)c1", "stereo": "stereo not given", "CoaBC": 2.895, "Pks13 thioesterase": -8.956, "ClpP1P2": -27.09, "LiHisRS": 15.74, "MtTrpRS": -4.412}
{"structure": "CC(=O)N1CCc2[nH]nc(C(=O)N3CCOCC3)c2C1", "CoaBC": -0.5089, "Pks13 thioesterase": -22.82, "ClpP1P2": -5.2, "LiHisRS": 9.709, "MtTrpRS": 5.578}
{"structure": "CC(C)C(=O)N1CCN(C(=O)c2cscn2)[C@H]2CS(=O)(=O)C[C@H]21", "CoaBC": 10.13, "Pks13 thioesterase": -12.17, "ClpP1P2": 5.992, "LiHisRS": 14.42, "MtTrpRS": 0.5687}
{"structure": "CC(=O)N1CCCC1c1ccc(CN2CCOCC2)cn1", "stereo": "stereo not given", "CoaBC": 4.306, "Pks13 thioesterase": -6.35, "ClpP1P2": -18.26, "LiHisRS": 1.439, "MtTrpRS": 14.19}
{"structure": "COc1ccc(CNC[C@H]2COCc3nc4cccnc4n32)cc1", "CoaBC": -5.643, "Pks13 thioesterase": -4.33, "ClpP1P2": -11.73, "LiHisRS": 13.89, "MtTrpRS": -5.949}
{"structure": "COCc1nc2ncc3c(=O)n(-c4cccc(OC)c4)ccc3n2n1", "CoaBC": -9.428, "Pks13 thioesterase": -8.099, "ClpP1P2": -5.323, "LiHisRS": -11.7, "MtTrpRS": -1.806}

The first 3 entries again:

structure,CoaBC,Pks13 thioesterase,ClpP1P2,LiHisRS,MtTrpRS
CCn1ccnc1CN1CCCN(C(=O)COC2CCCC2)CC1,6.997,-24.49,20.74,13.04,7.284
CC(C)c1noc(C[S+]([O-])CC(=O)Nc2cc(F)ccc2F)n1 (stereo not given),1.08,-17.48,-3.785,14.29,-4.534
Cn1cnc2c1CCN(CC(O)c1ccc(S(C)(=O)=O)cc1)C2 (stereo not given),8.249,-26.52,-4.55,10.26,-4.935